In this test the target is cynomolgus BCMA-his protein (Acro biosystems, Cat #BCA-052H7) (cynomolgus monkey). Briefly: condition: 10000 ng/ml (highest antibody concentration); indirect ELISA, cynomolgus BCMA-his coated. (In general: ELISA stands for enzyme-linked immunosorbent assay.)

These are yes or no findings as the source states them, for the method shown.

B1: huB1H2-V33 (antibody, human IgG1, kappa, V domains shown)
VH: QVQLVQSGAEVKKPGASVKVSCKASGYTLTNYVMHWVRQAPGQGLEWIGFIIPFNDGTKYNEHFKGRVTITSDTSISTAYMQLSSLRSEDTAVYYCARYDFEGYFDVWGQGTLVTVSS
VL: DIQMTQSPSSLSASVGDRVTITCSASQDITNFLNWYQQKPGKAPKLLIYSTSRLHSGVPSRFSGSGSGTDFTFTISSLQPEDIATYYCQQYSNLPWTFGQGTKVEIKR
notes: Humanized IgG1/kappa; cell supernatant in the Octet assay, purified antibody in Biacore, ELISA and FACS
For the molecule B1, the binding result is listed as “no binding”.

The values are drawn from US20230055711A1 (BIOSION, published 2023).
